According to article PMC11226401:

Target: MUC1-C subunit (human (endogenous in BT-549 and MDA-MB-468))
Experiment: affinity purification with mass spectrometry; anti-MUC1-C nuclear precipitates from TNBC cells analysed by mass spectroscopy; endogenous proteins

| binding | Binder |
| --- | --- |
| binds | RNA binding motif protein 14 (RBM14) (protein, UniProt Q96PK6 1-669) MKIFVGNVDGADTTPEELAALFAPYGTVMSCAVMKQFAFVHMRENAGALRAIEALHGHELRPGRALVVEMSRPRPLNTWKIFVGNVSAACTSQELRSLFERRGRVIECDVVKDYAFVHMEKEADAKAAIAQLNGKEVKGKRINVELSTKGQKKGPGLAVQSGDKTKKPGAGDTAFPGTGGFSATFDYQQAFGNSTGGFDGQARQPTPPFFGRDRSPLRRSPPRASYVAPLTAQPATYRAQPSVSLGAAYRAQPSASLGVGYRTQPMTAQAASYRAQPSVSLGAPYRGQLASPSSQSAAASSLGPYGGAQPSASALSSYGGQAAAASSLNSYGAQGSSLASYGNQPSSYGAQAASSYGVRAAASSYNTQGAASSLGSYGAQAASYGAQSAASSLAYGAQAASYNAQPSASYNAQSAPYAAQQAASYSSQPAAYVAQPATAAAYASQPAAYAAQATTPMAGSYGAQPVVQTQLNSYGAQASMGLSGSYGAQSAAAATGSYGAAAAYGAQPSATLAAPYRTQSSASLAASYAAQQHPQAAASYRGQPGNAYDGAGQPSAAYLSMSQGAVANANSTPPPYERTRLSPPRASYDDPYKKAVAMSKRYGSDRRLAELSDYRRLSESQLSFRRSPTKSSLDYRRLPDAHSDYARYSGSYNDYLRAAQMHSGYQRRM |
| binds | NUP93 (protein, UniProt Q8N1F7 1-819) MDTEGFGELLQQAEQLAAETEGISELPHVERNLQEIQQAGERLRSRTLTRTSQETADVKASVLLGSRGLDISHISQRLESLSAATTFEPLEPVKDTDIQGFLKNEKDNALLSAIEESRKRTFGMAEEYHRESMLVEWEQVKQRILHTLLASGEDALDFTQESEPSYISDVGPPGRSSLDNIEMAYARQIYIYNEKIVNGHLQPNLVDLCASVAELDDKSISDMWTMVKQMTDVLLTPATDALKNRSSVEVRMEFVRQALAYLEQSYKNYTLVTVFGNLHQAQLGGVPGTYQLVRSFLNIKLPAPLPGLQDGEVEGHPVWALIYYCMRCGDLLAASQVVNRAQHQLGEFKTWFQEYMNSKDRRLSPATENKLRLHYRRALRNNTDPYKRAVYCIIGRCDVTDNQSEVADKTEDYLWLKLNQVCFDDDGTSSPQDRLTLSQFQKQLLEDYGESHFTVNQQPFLYFQVLFLTAQFEAAVAFLFRMERLRCHAVHVALVLFELKLLLKSSGQSAQLLSHEPGDPPCLRRLNFVRLLMLYTRKFESTDPREALQYFYFLRDEKDSQGENMFLRCVSELVIESREFDMILGKLENDGSRKPGVIDKFTSDTKPIINKVASVAENKGLFEEAAKLYDLAKNADKVLELMNKLLSPVVPQISAPQSNKERLKNMALSIAERYRAQGISANKFVDSTFYLLLDLITFFDEYHSGHIDRAFDIIERLKLVPLNQESVEERVAAFRNFSDEIRHNLSEVLLATMNILFTQFKRLKGTSPSSSSRPQRVIEDRDSQLRSQARTLITFAGMIPYRTSGDTNARLVQMEVLMN |

Results are given in words; binding and its absence hold for the method and conditions named. In cells and extracts the contact can be indirect. These calls come from enrichment with a bait or labelling near it, and not all partners need be listed.
